Source: PubChem BioAssay AID2685 (National Center for Advancing Translational Sciences (NCATS), 2010)
The whole screen tested about 320,000 compounds, of which about 2,100 (0.66%) were called active. Inconclusive results, whose numbers are uncertain, are shown with a selection of clear calls. Calls follow the shape of the dose curve; as a rule, active = well fitted inhibition curve with a large enough effect in the signal ratio, with a control signal flat (not every such curve was filed as active); inconclusive = small, poorly fitted or top-dose-only effect, or effect the other way, or a change in a side signal; inactive = flat fitted curve, though single readings scatter; the % refers to the signal ratio. Potencies of inconclusive entries are doubtful fits and often do not repeat.

Experiment: qHTS Assay for Lipid Storage Modulators in Drosophila S3 Cells
Conditions: BODIPY lipid droplet fluorescence, 18-24 h, cells fed with added oleic acid; lipid storage change, negative = inhibition: at 46.1 µM (top of the series) unless noted
How it was run: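 Drosophila S3 cells loaded with oleic acid (400 uM, as added) and compounds at several concentrations; lipid droplets imaged by 488-nm laser-scanning cytometry, 500–530 nm intensity and object ratio to cell channel. Percent activity normalized to 20 uM Triacsin C.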
% is scaled to controls: 0 for no effect and ±100 for the full control effect; potency is read from the fitted curve at half-maximal effect.

| Compound | lipid storage change, negative = inhibition | Potency |
| --- | --- | --- |
| O=C(O)C1CCCN1S(=O)(=O)c1ccc(F)cc1 (stereo not drawn) | inconclusive: -20.6% |  |
| COc1ccc(N(CC(=O)Nc2ccc(S(=O)(=O)N3CCOCC3)cc2)S(=O)(=O)c2ccc(F)cc2)cc1 |  | inconclusive: 9.2 µM [falling, partial curve] |
| C/C(N)=C(/C#N)C(=O)CSc1cc(C)c2ccccc2n1 | inconclusive: -63% [cytotoxic] [at 0.00295 µM] |  |
| Cc1ccc(-n2c(CNc3ccc(F)cc3)nnc2SCC(=O)N2CCCC2)cc1 | inconclusive: 351% |  |
| CC1CCc2c(sc(NC(=O)c3ccco3)c2C(=O)O)C1 (stereo not drawn) | inconclusive: 106% |  |
| COc1ccccc1N/C=C1/Sc2cc(Cl)ccc2NC1=O |  | inconclusive: 0.0651 µM [activator, full curve] |
| COc1cc(/C=C2/C(=O)NN(c3ccc(C)c(Cl)c3)C2=O)cc([N+](=O)[O-])c1O | inconclusive: 77.9% |  |
| CN1C(=O)N(CC(=O)N2CCN(c3ccccc3F)CC2)C(=O)C12CCCCC2 | inconclusive: 11.8% |  |
| Nc1nonc1-n1nnc(C(=O)N/N=C/c2ccc(OCc3ccccc3F)cc2)c1CN1CCCCC1 | inconclusive: 16% |  |
| CC(C(=O)Nc1ccccc1Sc1ccccc1)N(c1ccccc1)S(C)(=O)=O (stereo not drawn) | inconclusive: 24.4% |  |
| Cc1cc(C(=O)N2CCCC(CCC(=O)N3CCN(c4ccccn4)CC3)C2)c(C)o1 (stereo not drawn) |  | inconclusive: 20.6 µM [falling, single point] |
| CCOc1cc(/C=N/NC(=O)CCn2nc(C)cc2C)ccc1O | inconclusive: 3.18% |  |
| N#C/C(=C\Nc1ccc2c(c1)OCCO2)c1nc(-c2ccccc2)cs1 |  | inconclusive: 1.3 µM [activator, full curve] |
| COc1ccc(N2C(=O)CSC23C(=O)N2CCCc4cccc3c42)cc1 (stereo not drawn) | inconclusive: 9.92% |  |
| O=C(Nc1cccnc1Cl)c1ccc(Cl)cc1 | inconclusive: -0.274% |  |
| COc1ccccc1OC(C)C(=O)O (stereo not drawn) | inconclusive: 6.78% |  |
| COc1ccc(Cn2c(=O)[nH]c3cc(C(=O)N4CCN(c5ccc(OC)cc5)CC4)ccc3c2=O)cc1 |  | inconclusive: 29.1 µM [activator, single point] |
| Cn1c(Oc2ccc(F)cc2F)c(C=O)c2ccccc21 | inconclusive: 10.8% |  |
| COc1cccc(-n2c(C)nc3c(cnn3-c3ccc(C)cc3)c2=O)c1 |  | inconclusive: 16.4 µM [activator, partial curve] |
| Cc1ccc(S(=O)(=O)N(C)c2ccc(C(=O)NCC(c3ccco3)N(C)C)cc2)cc1 (stereo not drawn) |  | active: 1.64 µM |
| O=Cc1cccn1-c1c(C(=O)O)cnn1-c1ccccc1 |  | inconclusive: 0.651 µM [cytotoxic, partial curve, poor fit] |
| Cn1c(SCC(=O)Nc2ccc3c(c2)CCC3)nnc1C1CC1 | inconclusive: -33.6% |  |
| O=C(c1cccc(C(=O)N2CCN(c3ccc(F)cc3)CC2)c1)N1CCN(c2ccc(F)cc2)CC1 | inconclusive: 32.8% |  |
| NS(=O)(=O)c1ccc(NC(=S)N2CCCC2)cc1 | inconclusive: 15.6% |  |
| Cc1sc2nc(CN3CCCC3)nc(N3CCN(C(=O)c4ccco4)CC3)c2c1C |  | inconclusive: 1.16 µM [activator, full curve, poor fit] |

| Compound | lipid storage change, negative = inhibition | Potency |
| --- | --- | --- |
| O=C(/C=C/c1cccc(Cl)c1)c1nc2ccccc2[nH]1 |  | inconclusive: 7.31 µM [cytotoxic, partial curve] |
| COc1ccccc1C(=O)NCC(=O)Nc1cccnc1 | inconclusive: 16.8% |  |
| CC1CCN(CC(O)COc2ccc(-c3ccccc3)cc2)CC1 (stereo not drawn) | inconclusive: -23.3% |  |
| CCN(CC)C(=O)Cn1cc(C(=O)C(=O)NCCc2c[nH]c3ccccc23)c2ccccc21 |  | inconclusive: 0.082 µM [activator, full curve, poor fit] |
| Cc1nc(/N=C(\N)NC(=O)N2c3ccccc3Sc3ccccc32)nc2ccccc12 |  | inconclusive: 0.731 µM [activator, full curve, poor fit] |
| CCN(CC(=O)Nc1c(F)cccc1F)C(=O)CNC(=O)c1ccc2c(c1)OCO2 | inconclusive: 3.27% |  |
| CCCc1cc(C(=O)NNC(=S)Nc2cccc(C)c2)cs1 |  | inconclusive: 1.16 µM [activator, full curve] |
| Cc1cc(C)c(NC(=O)COC(=O)c2cc([N+](=O)[O-])ccc2N2CCOCC2)c(C)c1 |  | inconclusive: 3.26 µM [activator, partial curve] |
| OCCN1CCN(CC#CCn2c3ccccc3c3ccccc32)CC1 |  | inconclusive: 3.66 µM [falling, full curve] |
| COc1cccc(N2CCN(C(=O)CN3C(=O)NC(C)(c4ccc5ccccc5c4)C3=O)CC2)c1 (stereo not drawn) | inconclusive: -10.5% |  |
| Cc1cc(Cl)ccc1OC(C)C(=O)Nc1ccc([N+](=O)[O-])cn1 (stereo not drawn) | inconclusive: -0.561% |  |
| CN(C)CC(C)(C)CNC(=S)Nc1cc(S(=O)(=O)N2CCOCC2)ccc1Cl | inconclusive: 20.4% |  |
| CC(=O)OC1=C(C#N)Cn2ccc3cccc1c32 | inconclusive: 21.6% |  |
| CC1CCCN(C(=O)C(C)Sc2nc(-c3ccccc3)cc(C(F)(F)F)n2)C1 (stereo not drawn) |  | inconclusive: 3.26 µM [activator, single point] |
| CCCSc1nnc2[nH]c(=O)cc(N)n12 | inconclusive: 11.7% |  |
| Cc1ccc(C)n1-c1ccc(NC(=O)c2ccccc2)cc1 | inconclusive: 16.7% |  |
| CC(CCN1C(N(C)C)=NC[C@@H]1C)c1ccccc1 (stereo partly drawn) | inconclusive: 41.8% |  |
| O=C(O)c1ccc2c(c1)C(=O)N([C@H](Cc1cccc3ccccc13)C(=O)O)C2=O | inconclusive: -0.703% |  |
| Cc1ccc(CS(=O)Cc2ccc(C(=O)NCc3ccc(OC(C)C)cc3)o2)cc1 (stereo not drawn) |  | inconclusive: 0.58 µM [falling, single point] |
| O=C(CSCc1cccc(Cl)c1)N/N=C/c1ccc(OCC(=O)N2CCCCC2)cc1 |  | inconclusive: 20.6 µM [falling, single point] |
| CCOc1ccc(S(=O)(=O)NC2CC2)cc1 |  | inconclusive: 5.17 µM [activator, full curve] |
| O=C(NC1CCN(S(=O)(=O)c2ccc(F)cc2)CC1)c1ccc(F)cc1 |  | inconclusive: 29.1 µM [activator, single point] |
| CC[C@H](C)C(C(=O)N1CCN(C(=O)OC(C)(C)C)CC1)n1cc(C(Cc2ccc(O)cc2)NC(=O)OC(C)(C)C)nn1 (stereo partly drawn) | inconclusive: -26.1% |  |
| COc1cc(Nc2ccc(S(N)(=O)=O)cc2)c([N+](=O)[O-])nc1[N+](=O)[O-] | inconclusive: -31.1% |  |
| CC(=O)C1C(c2cccc([N+](=O)[O-])c2)C2C(C)=NN=C2CC1(C)O (stereo not drawn) | inconclusive: 2.73% |  |

| Compound | lipid storage change, negative = inhibition | Potency |
| --- | --- | --- |
| COc1ccc(CCC(=O)NCc2ccccc2Cl)cc1OC | inconclusive: 12.1% |  |
| CC(OC(=O)CNC(=O)c1ccc(Br)cc1)C(=O)NC1CCCCC1C (stereo not drawn) | inconclusive: 9.56% |  |
| O=C(CSc1ncnc2c1cnn2Cc1ccccc1)Nc1ccc2c(c1)OCCO2 |  | inconclusive: 6.51 µM [rising, single point] |
| O=C(NCc1ccc2c(c1)OCO2)c1cc(S(=O)(=O)N2CCCCC2)ccc1F | inconclusive: 123% |  |
| Cc1[nH]c2ccccc2c1C(=O)CSC(=S)N1CCCCC1 | inconclusive: -106% |  |
| CCCn1ncc(C(=O)N(C)C2CCCN(Cc3ccccc3F)C2)c1C (stereo not drawn) |  | inconclusive: 0.461 µM [falling, single point] |
| Cc1oncc1C(=O)NC1CCCCC1 | inconclusive: -4.47% |  |
| O=C(CCS(=O)(=O)c1ccccc1)Nc1ccc(N2CCN(Cc3ccccc3)CC2)cc1 |  | inconclusive: 0.58 µM [activator, single point] |
| O=[N+]([O-])c1ccc(Cn2cc(-c3cccc(C(F)(F)F)c3)nn2)cc1 | inconclusive: -34.5% |  |
| CC(=O)/C=C(\C)NCCNc1c(F)c(F)c(CO)c(F)c1F |  | inconclusive: 0.146 µM [activator, full curve, poor fit] |
| Cc1cc(C)nc(SCC(=O)Nc2ccc(S(=O)(=O)Nc3onc(C)c3C)cc2)n1 | inconclusive: 48.1% |  |
| O=C(Nc1ccc(Cl)cn1)Nc1cccs1 |  | inconclusive: 1.03 µM [activator, partial curve] |
| COC(=O)c1ccc(Nc2ncnc3c2cnn3-c2cccc(C)c2)cc1 |  | inconclusive: 1.3 µM [falling, full curve] |
| CN(CC(=O)Nc1ccc(Cl)c(C(F)(F)F)c1)C(=O)CNC(=O)C1CCCCC1 |  | inconclusive: 0.92 µM [falling, partial curve, poor fit] |
| COc1ccc(OCc2nn3c(Cn4cnc5ccccc54)nnc3s2)cc1 |  | inconclusive: 29.1 µM [activator, single point] |
| COc1cccc(NC(=O)c2cc(-c3cccnc3)nc3c(Cl)cccc23)c1 | inconclusive: -33.6% |  |
| Cc1ccc2[nH]c(C(=O)NCCN3CCCC3)cc2c1 | inconclusive: 132% |  |
| CCOc1ccccc1OCCCCOc1ccccc1F |  | inconclusive: 13 µM [activator, single point] |
| CCOc1ccccc1NC(=O)NCCN1CCCCC1 |  | inconclusive: 18.4 µM [activator, single point] |
| C[C@H](NC(=O)c1cc2cc(Cl)ccc2n1C)C(=O)N1CCC(C(=O)O)CC1 | inconclusive: 9.86% |  |
| CCN1CCc2c(C#N)c(NCc3ccccc3)nc(NCCO)c2C1 | inconclusive: 61.8% |  |
| COc1ccc2nc(NC(=O)CSc3nnc(C)s3)sc2c1 | inconclusive: -13.9% |  |
| COc1cc(Nc2nc(SCC#N)nc3ccccc23)cc(OC)c1OC | inconclusive: -23.2% |  |
